Library screen at single concentrations

T. brucei: 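Whole-parasite assay of Trypanosoma brucei over 72 hours; the read-out is not stated. Concentration: 30 µM. The record gives no direction; compounds that gave an IC50 in retests scored well above the rest, so higher reads as stronger inhibition. Values scatter widely below zero; nearly all retest evidence comes from the higher of the two concentrations used. Size under these conditions: about 64,000 compounds, about 940 of them at 50% or above in at least one test.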
Toxoplasma: 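Assay of Toxoplasma gondii numbers, read through their beta-galactosidase reporter with a colour substrate. Concentration: 10 µM. Higher reads as fewer parasites (inferred from which compounds were picked for retests). Of about 67,000 compounds tested this way, about 260 (0.38%) reached 50% or more in at least one test.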

Each number is a percent effect as filed. How 0% and 100% were set is not recorded. Most values in the screen are low, and negative values occur. Compounds were drawn at random from those tested, without regard to their results.

Cc1cccc(OCCNC(=O)CN2CCc3cncnc3C2)c1 read T. brucei: 12.07%; Toxoplasma: -15.5%.
CCN1CCn2c(C)cnc2C12CCN(C(=O)c1ccco1)CC2.O=C(O)C(F)(F)F.O=C(O)C(F)(F)F read T. brucei: -14.53%; Toxoplasma: 2.639%.
COc1cccc([C@H]2CN(CCCS(=O)(=O)N(C)C)C[C@@H]2N)c1 read T. brucei: -39.8%; Toxoplasma: -0.7134%.
Cc1c(-c2nnc(SCC(=O)O)n2C(C)c2ccccc2)cnn1C (stereo not shown) read T. brucei: -17.66%; Toxoplasma: -0.6631%.
CCn1c(CN2CCN(CCOC)CC2)nc2c(F)cccc21 read T. brucei: 21.46%; Toxoplasma: 7.003%.
Cc1ccccc1CC(C)NC(=O)Nc1cnn(CC(N)=O)c1 (stereo not shown) read T. brucei: -7.615%; Toxoplasma: -11.3%.
CC(C)N1CCC(C(=O)N(C)C(C)c2ccon2)CC1 (stereo not shown) read T. brucei: -16.52%; Toxoplasma: -25.22%.
CN(C)CC1(O)CCCN(c2ccnc3c(C(F)(F)F)cccc23)C1 (stereo not shown) read T. brucei: 8.548%; Toxoplasma: 12.02%.
O=C(COC1CCCC1)NCCc1noc(-c2ccccn2)n1 read T. brucei: 3.571%; Toxoplasma: 9.341%.
COCCC(=O)NCCc1nc(N(C)C)ncc1-c1ccncc1 read T. brucei: 8.941%; Toxoplasma: -0.687%.
COc1ccc(COCC(O)CNC(=O)c2cccnc2)cc1 (stereo not shown) read T. brucei: -12.08%; Toxoplasma: 3.881%.
Cn1c(=O)oc2ccc(S(=O)(=O)N3CCC(c4ccccc4)C3)cc21 (stereo not shown) read T. brucei: -92.01%; Toxoplasma: 9.257%.
c1ccc(NCc2cn3c(n2)CN(Cc2ccoc2)CC3)nc1 read T. brucei: -25.68%; Toxoplasma: 0.2989%.
Cn1ccnc1CN1CCCCC1Cn1cccn1 (stereo not shown) read T. brucei: -12.66%; Toxoplasma: -2.643%.
Cc1noc(C)c1CN(C)C(=O)c1ccc(NC2CC2)nc1 read T. brucei: 41.37%; Toxoplasma: -4.457%.
Cc1cnccc1N1CCCN(Cc2ccc(-c3cc[nH]n3)o2)CC1 read T. brucei: -0.4845%; Toxoplasma: -2.296%.
CCc1nc(C2CCCN2CC(=O)Nc2cc(C)nn2C)no1 (stereo not shown) read T. brucei: 16.87%; Toxoplasma: -9.094%.
Cc1ccc2[nH]c(C(=O)N3CCC4(CC3)C(=O)NCCN4C)nc2c1 read T. brucei: 74.91%; Toxoplasma: -42.08%.
O=C(C1CCCO1)N1CCC(Cn2cc(C3CCCC3)nn2)CC1 (stereo not shown) read T. brucei: 12.53%; Toxoplasma: 6.177%.
[H][C@@]12CN(C(=O)Nc3ccc(F)cc3)C[C@]1([H])OCC(=O)N2C read T. brucei: -0.7784%; Toxoplasma: 2.206%.
O=C(O)C(F)(F)F.[H][C@@]12CN(CC3CC3)C[C@]1([H])C(=O)N(c1ccsc1)C2 read Toxoplasma: -0.9145%.
Cc1ccsc1C(=O)N1CC(C(=O)NCC2CC2)C2(CCOCC2)C1 (stereo not shown) read T. brucei: -27.97%; Toxoplasma: -1.441%.
CCc1noc(CN(C)CCC(=O)Nc2ccccc2C#N)n1 read T. brucei: -13.12%; Toxoplasma: 1.667%.
O=S(=O)(Nc1cnc(N2CCOCC2)nc1)c1ccc(C(F)(F)F)cc1 read T. brucei: -17.97%; Toxoplasma: -7.62%.
CCNC(=O)N(Cc1ccoc1)C1CCCCC1 read T. brucei: -7.717%; Toxoplasma: 5.369%.
CCc1nc(C2CCCN2Cc2ccn(C)c(=O)c2)no1 (stereo not shown) read T. brucei: -4.786%; Toxoplasma: -0.1565%.
CN1CCCC1CNC(=O)CCCOc1ccc(F)cc1 (stereo not shown) read T. brucei: 18.37%; Toxoplasma: -17.5%.
Cc1nn(C)c(Cl)c1C1CCCN1C(=O)c1ccoc1C (stereo not shown) read T. brucei: 3.547%; Toxoplasma: -7.804%.
c1cncc(COCC2CN(Cc3ccco3)Cc3nccn3C2)c1 (stereo not shown) read T. brucei: -193.8%; Toxoplasma: 13.92%.
Cc1csc(N2CCN(C(=O)Cc3cccs3)CC2)n1 read T. brucei: -38.67%; Toxoplasma: 18.29%.
Fc1ccc2[nH]c3c(c2c1)CCN1C(c2ccccn2)N2CCC31CC2 (stereo not shown) read T. brucei: 100.3%; Toxoplasma: 39.3%.
O=C(O)C(F)(F)F.O=C(O)C(F)(F)F.[H][C@@]12CN(Cc3cccc(F)c3)C[C@]1([H])CN(Cc1ccccn1)C2 read T. brucei: 2.079%; Toxoplasma: 8.469%.
CC(C)n1cc(CN2CCCN(C(=O)COC3CCCC3)CC2)cn1 read T. brucei: -4.871%; Toxoplasma: -4.758%.
O=C(NCC1CCS(=O)(=O)C1)N(Cc1ccccn1)C1CC1 (stereo not shown) read T. brucei: -0.3539%; Toxoplasma: -6.547%.

2 of the entries, repeated:

structure	T. brucei	Toxoplasma
COCCC(=O)NCCc1nc(N(C)C)ncc1-c1ccncc1	8.941	-0.687
O=S(=O)(Nc1cnc(N2CCOCC2)nc1)c1ccc(C(F)(F)F)cc1	-17.97	-7.62

Data taken from ChEMBL document CHEMBL3988442, “University of Dundee, Small-Polar-MMV Screening Library” (2021).